Structures can show the parent of a compound that is named as a salt. Not every detail of the peptide structures is certain; ends, links or a residue may be inferred.
System: patients with schizophrenia
Experiment: Clinical data: case reports (Cases 1 to 6) of schizophrenic patients on neuroleptics, L-Dopa and TRH
Assay type: in vivo, human
Description: The following clinical data as well as Examples are only for illustrative purposes and are not at all intended to limit or to restrict the scope of the invention.
On April 14, they came back to their home town and, on the following day, was admitted to hospital.
On July 10, TRH tartrate monohydrate 4 mg. (2.73 mg. in terms of free TRH) per day (2 mg. each in the morning and night) began to be administered orally in combination with thioridazine, 50 mg. per day, and trihexyphenydyl 6 mg. per day. […] On July 31, the administration of TRH was stopped.
In February 1961, the patient was admitted for the first time to Y hospital in a state of catatonic stupor. After receiving electroshock therapy and chlorpromazine, they were discharged from the hospital on April 19 of the same year. On May 26, 1966 they were again admitted to the same hospital this time in a state of catatonic excitement. […] Beginning on April 3, 1971, thioridazine, 300 mg. per day, and L-Dopa, 400 mg. daily, were added to the therapeutic regime. […] From the 9th day on, the dosage of L-Dopa was increased to 600 mg. daily. […] At the 19th week, the dosage of L-Dopa was reduced to 400 mg. and the drug was discontinued that week-end.
Hospital therapy was started with chlorpromazine, 400 mg. per day, and spiperone, 1 mg. per day. […] Consequently, the dosage of chlorpromazine was raised to 500 mg. per day. […] Beginning on August 9, penfluridol, 20 to 40 mg. twice weekly, was added to the preceding regimen of chlorpromazine 500 mg. daily. On June 26, 1973, the dosage of chlorpromazine was reduced to 200 mg. per day. Shortly thereafter, L-Dopa, 100 mg. daily, was added to the regimen from July 5 on. The dosage of L-Dopa was then increased gradually up to 600 mg. per day and finally discontinued on August 30.
On July 2, 1974, they were started on clocapramine, 75 mg. daily, to which TRH tartrate monohydrate, 4 mg. (2.73 mg. in terms of free TRH) daily, was orally added from July 29 on.

## NC(=O)[C@@H]1CCCN1C(=O)[C@H](Cc1c[nH]cn1)NC(=O)[C@@H]1CCC(=O)N1 [TRH tartrate monohydrate]
4 mg (2.73 mg free TRH) daily for 14 days with haloperidol 12 mg daily and diazepam 9 mg daily, 4th day
  Clinical outcome, Case 4, TRH with haloperidol and diazepam: a marked improvement occured in their facial expression
4 mg (2.73 mg free TRH) daily in two divided oral doses, added to the regimen, 15 days
  Clinical outcome, Case 5, TRH added to the regimen: their behaviour became much more active than before
4 mg (2.73 mg free TRH) daily orally with clocapramine 75 mg daily, trihexyphenidyl 6 mg per day, 8th day after initiating TRH therapy
  Clinical outcome, Case 2, TRH with clocapramine: they became more active and more vivid in their facial expression than before
person, 4 mg (2.73 mg free TRH) per day orally with thioridazine 50 mg per day and trihexyphenydyl 6 mg per day, started July 10, observed July 20
  Clinical outcome, Case 1: the stiffness as a whole was removed, the emotional expression was clear and the behaviour was active

From patent publication US4088755A, “Medicament for remedying schizophrenia” (priority 1975, dated 1978)
